Here are results for two sequences from article PMC11371216.

Sequences of proteins named here, by UniProt entry; tags and fusion partners are left off. A change or cut given only in a name is not applied to a line headed by its entry.
UniProt P26358: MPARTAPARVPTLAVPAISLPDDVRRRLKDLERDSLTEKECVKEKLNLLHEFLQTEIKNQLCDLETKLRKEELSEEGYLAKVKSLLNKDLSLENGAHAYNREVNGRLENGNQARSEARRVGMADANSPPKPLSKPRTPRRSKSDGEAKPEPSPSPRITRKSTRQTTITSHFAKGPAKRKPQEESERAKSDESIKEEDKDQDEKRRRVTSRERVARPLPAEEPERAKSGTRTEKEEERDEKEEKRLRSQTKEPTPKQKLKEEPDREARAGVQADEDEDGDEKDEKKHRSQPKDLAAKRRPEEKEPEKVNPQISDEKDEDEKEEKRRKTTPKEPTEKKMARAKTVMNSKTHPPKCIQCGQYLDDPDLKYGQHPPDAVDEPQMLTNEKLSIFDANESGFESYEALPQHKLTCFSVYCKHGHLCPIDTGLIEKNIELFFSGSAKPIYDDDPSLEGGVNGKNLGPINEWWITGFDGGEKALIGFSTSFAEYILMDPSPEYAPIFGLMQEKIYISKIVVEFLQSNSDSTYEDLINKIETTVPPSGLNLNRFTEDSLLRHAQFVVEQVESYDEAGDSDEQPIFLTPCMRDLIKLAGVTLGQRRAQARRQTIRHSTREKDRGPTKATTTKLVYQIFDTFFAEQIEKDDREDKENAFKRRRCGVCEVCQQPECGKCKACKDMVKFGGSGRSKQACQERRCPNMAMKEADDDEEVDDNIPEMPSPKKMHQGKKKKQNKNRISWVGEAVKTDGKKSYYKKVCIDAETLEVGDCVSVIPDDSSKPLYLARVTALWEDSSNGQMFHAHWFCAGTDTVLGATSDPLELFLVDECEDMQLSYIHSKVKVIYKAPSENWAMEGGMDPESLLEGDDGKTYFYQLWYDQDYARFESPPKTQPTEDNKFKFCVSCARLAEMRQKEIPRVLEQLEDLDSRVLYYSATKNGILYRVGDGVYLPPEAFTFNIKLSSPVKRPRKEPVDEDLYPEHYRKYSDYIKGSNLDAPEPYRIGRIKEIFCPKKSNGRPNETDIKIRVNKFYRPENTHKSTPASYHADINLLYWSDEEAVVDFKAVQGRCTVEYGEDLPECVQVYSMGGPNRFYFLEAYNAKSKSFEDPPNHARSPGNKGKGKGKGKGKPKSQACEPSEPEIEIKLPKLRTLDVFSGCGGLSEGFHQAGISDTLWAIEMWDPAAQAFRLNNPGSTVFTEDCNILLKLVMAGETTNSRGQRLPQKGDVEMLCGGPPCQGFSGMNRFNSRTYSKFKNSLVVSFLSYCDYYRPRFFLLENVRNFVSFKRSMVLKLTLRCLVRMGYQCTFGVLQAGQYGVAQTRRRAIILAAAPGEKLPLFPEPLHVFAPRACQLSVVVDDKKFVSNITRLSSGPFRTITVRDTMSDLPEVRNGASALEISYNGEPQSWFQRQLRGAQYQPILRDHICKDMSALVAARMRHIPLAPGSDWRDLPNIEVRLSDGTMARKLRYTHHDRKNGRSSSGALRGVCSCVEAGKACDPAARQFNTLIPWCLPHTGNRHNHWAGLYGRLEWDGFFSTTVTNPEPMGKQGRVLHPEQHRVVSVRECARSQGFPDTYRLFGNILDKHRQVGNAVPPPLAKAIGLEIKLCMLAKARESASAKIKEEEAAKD

The exact form of at least one protein or probe is not confirmed. For some of these results: Negatives hold for the conditions tested. For some of these results: At least one verdict was read from the data and is not stated in words by the source.

Series [1] has as its system DNMT1 + H3Ub2-peptide (H3-K18Ub/K23Ub analogue) H3:K18C,K23C, ubiquitin:G76C. The experiment in a line: covalent complex on SDS-PAGE. As to conditions: SAM 150-fold excess, 2 mM Mg2+, no inhibitor; 5-methyl-dC at position 13 of strand 1; 5-fluoro-dC at position 13 of strand 2; covalent assay: 25 mM Tris-HCl pH 7.5, 20 mM KCl, 20% glycerol, 2 mM MgCl2, 37 C, 1 h; recombinant protein; protein details: N-terminal Flag-6xHis-TEV site.

The target of series [2] is DNMT1 (human) (UniProt P26358). The experiment in a line: covalent complex on SDS-PAGE. The note with it: no H3Ub2-peptide, no covalent complex (non-covalent binding not tested); 5-methyl-dC at position 13 of strand 1; 5-fluoro-dC at position 13 of strand 2; covalent assay: 25 mM Tris-HCl pH 7.5, 20 mM KCl, 20% glycerol, 2 mM MgCl2, 37 C, 1 h; recombinant protein; protein details: N-terminal Flag-6xHis-TEV site.

The subject of series [3] is DNMT1 + H3Ub2-peptide (H3-K18Ub/K23Ub analogue) H3:K18C,K23C, ubiquitin:G76C. The experiment in a line: cryo-EM. The note with it: productive covalent complex; 5-methyl-dC at position 13 of strand 1; 5-fluoro-dC at position 13 of strand 2; covalent assay: 25 mM Tris-HCl pH 7.5, 20 mM KCl, 20% glycerol, 2 mM MgCl2, 37 C, 1 h; recombinant protein; protein details: N-terminal Flag-6xHis-TEV site.

For series [4], the target named is DNMT1 (human) (UniProt P26358). In words: EMSA. As to conditions: SAM 20-fold excess, no inhibitor; 5-methyl-dC at position 13 of strand 1; EMSA: 25 mM Tris-HCl pH 7.5, 40 mM NaCl, 20% glycerol, 1 mM DTT, 0.5 mM MgCl2, overnight at room temperature; recombinant protein; protein details: N-terminal Flag-6xHis-TEV site.

On to “TGGAGTCGAGGCCGCCTGCGCAGGAC (double strand) [26 bp 5FDNA (hemi-methylated, 5-fC target strand)]”, for which the binding result in series [1] is on record as “binds”; in the series with DNMT1 (human) [2], “no binding”; in series [3], “binds”.

As for “TGGAGTCGAGGCCGCCTGCGCAGGAC (double strand) [26 bp hemi-methylated DNA]”, the binding result with DNMT1 (human) [4] is “binds”.
